The text below walks through data of the supplement of paper PMC10849652.

Sequences of proteins named here, by UniProt entry; tags and fusion partners are left off. A change or cut given only in a name is not applied to a line headed by its entry.
UniProt Q9NR77: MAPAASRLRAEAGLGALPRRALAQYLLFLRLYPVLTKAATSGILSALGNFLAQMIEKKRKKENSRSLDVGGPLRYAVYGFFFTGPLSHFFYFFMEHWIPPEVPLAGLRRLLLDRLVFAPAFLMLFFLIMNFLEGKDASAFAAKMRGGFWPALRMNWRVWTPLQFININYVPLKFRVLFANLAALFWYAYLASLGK
UniProt Q86X27: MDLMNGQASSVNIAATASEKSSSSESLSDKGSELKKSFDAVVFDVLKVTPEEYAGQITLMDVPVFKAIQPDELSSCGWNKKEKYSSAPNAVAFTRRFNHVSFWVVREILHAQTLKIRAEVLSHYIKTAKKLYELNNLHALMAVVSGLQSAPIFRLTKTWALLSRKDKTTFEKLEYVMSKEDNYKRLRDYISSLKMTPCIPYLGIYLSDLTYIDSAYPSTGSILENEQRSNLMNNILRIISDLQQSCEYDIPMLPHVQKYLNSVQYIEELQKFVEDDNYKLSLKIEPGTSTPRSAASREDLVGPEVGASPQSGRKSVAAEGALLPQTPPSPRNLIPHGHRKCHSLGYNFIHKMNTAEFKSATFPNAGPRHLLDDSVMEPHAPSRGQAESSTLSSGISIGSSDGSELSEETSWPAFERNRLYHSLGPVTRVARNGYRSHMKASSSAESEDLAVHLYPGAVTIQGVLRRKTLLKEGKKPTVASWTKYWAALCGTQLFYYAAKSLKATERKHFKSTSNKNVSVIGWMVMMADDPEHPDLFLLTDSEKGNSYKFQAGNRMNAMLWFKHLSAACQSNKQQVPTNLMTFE
UniProt Q9NS91, whole entry, looked up: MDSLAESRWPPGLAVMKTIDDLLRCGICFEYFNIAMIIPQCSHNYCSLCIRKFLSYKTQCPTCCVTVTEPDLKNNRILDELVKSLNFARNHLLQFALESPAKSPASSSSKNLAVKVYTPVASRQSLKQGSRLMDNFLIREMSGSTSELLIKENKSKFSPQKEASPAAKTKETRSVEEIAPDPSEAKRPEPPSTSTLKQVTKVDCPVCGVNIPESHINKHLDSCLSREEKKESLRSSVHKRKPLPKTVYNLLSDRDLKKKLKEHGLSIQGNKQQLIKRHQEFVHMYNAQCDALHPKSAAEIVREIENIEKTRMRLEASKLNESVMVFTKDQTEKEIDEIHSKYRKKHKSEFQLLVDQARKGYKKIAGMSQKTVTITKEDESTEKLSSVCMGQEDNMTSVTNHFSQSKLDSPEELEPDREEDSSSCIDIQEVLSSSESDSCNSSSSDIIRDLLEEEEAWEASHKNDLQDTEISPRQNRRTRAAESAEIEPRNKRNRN
UniProt Q96D70: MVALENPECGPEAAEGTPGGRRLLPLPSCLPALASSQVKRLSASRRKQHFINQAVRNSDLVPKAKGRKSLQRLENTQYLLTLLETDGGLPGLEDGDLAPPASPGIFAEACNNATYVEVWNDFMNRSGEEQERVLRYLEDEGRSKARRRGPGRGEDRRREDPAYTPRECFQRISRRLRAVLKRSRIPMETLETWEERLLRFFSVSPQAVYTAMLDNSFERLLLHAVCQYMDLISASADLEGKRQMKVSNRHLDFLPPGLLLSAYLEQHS
UniProt Q9UL25: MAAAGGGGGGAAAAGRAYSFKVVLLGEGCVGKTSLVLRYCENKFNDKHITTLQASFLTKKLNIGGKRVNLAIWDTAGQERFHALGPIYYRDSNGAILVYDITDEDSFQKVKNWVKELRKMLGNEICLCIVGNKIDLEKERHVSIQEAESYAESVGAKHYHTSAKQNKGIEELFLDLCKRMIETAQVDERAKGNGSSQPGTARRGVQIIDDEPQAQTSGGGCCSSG
UniProt Q7Z7A4: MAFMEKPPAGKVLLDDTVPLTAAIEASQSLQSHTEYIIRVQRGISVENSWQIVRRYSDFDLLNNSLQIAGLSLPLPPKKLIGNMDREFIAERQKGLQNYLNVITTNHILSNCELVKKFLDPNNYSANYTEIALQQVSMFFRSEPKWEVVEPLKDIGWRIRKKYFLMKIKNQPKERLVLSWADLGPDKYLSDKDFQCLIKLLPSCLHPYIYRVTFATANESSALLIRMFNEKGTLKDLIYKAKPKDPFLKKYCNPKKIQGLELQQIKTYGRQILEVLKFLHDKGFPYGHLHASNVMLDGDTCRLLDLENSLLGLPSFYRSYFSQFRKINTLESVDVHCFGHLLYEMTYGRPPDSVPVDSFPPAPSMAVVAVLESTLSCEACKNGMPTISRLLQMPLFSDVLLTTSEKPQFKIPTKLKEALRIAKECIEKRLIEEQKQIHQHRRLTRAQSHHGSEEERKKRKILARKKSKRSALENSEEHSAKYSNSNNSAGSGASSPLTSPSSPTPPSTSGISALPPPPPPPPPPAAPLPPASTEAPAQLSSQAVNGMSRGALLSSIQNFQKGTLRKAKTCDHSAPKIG
UniProt Q15286: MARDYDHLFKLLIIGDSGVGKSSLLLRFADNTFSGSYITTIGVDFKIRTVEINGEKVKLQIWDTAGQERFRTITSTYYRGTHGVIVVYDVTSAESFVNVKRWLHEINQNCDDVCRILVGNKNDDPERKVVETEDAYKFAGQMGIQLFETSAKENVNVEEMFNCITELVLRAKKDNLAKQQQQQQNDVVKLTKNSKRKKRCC

This is one part of the list.

What all share (test): log2 fold change, soluble protein after heating vs DMSO (PISA); higher = thermal stabilisation; K562 lysate, 10 uM; active = over 0.2 and 3.5 SD of the protein, either way, in both replicates (recomputed)
Compound in experiment [1]: NCC(=O)Nc1ccc(-n2nc(C(F)(F)F)cc2-c2ccc3c(ccc4ccccc43)c2)cc1
Put shortly:
(§1)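 The values are log-two fold changes in thermal stability compared with solvent controls and come from duplicates. They were obtained by TMTpro 16plex LC-MS/MS, with channel sums equalised, on the supernatant after 21,000xg for 90 min. That supernatant came from crude K562 extract at 1 mg/mL protein treated with 10 μM compound for 30 min, heated for 3 min across 48°C-58°C, pooled and brought to 0.5% NP-40 at 4°C.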

Compound in the next experiment: O=C(CCCCCCC(=O)Nc1ccccc1)NO [vorinostat]
The gist of the method: as §1

Compound in a further experiment: O=C(O)c1ccc2c(c1)nc(Nc1cccc(Cl)c1)c1ccncc12 [silmitasertib]
The gist of the method:
as §1

Compound in experiment [2]: O=C1NC(=O)C(c2cnc3ccccn23)=C1c1cn2c3c(cc(F)cc13)CN(C(=O)N1CCCCC1)CC2
The gist of the method:
as §1

Compound in another experiment: c1cn2cc(-c3ccc4cn[nH]c4c3)nc(Nc3ccc(N4CCOCC4)cc3)c2n1 [entospletinib]
The gist of the method:
as §1

With PXMP2 (UniProt Q9NR77), the log2 fold change in experiment [1] is inactive: 0.031; with vorinostat, inactive: 0.072; with silmitasertib, inactive: 0.024; in experiment [2], inactive: 0.066; with entospletinib it was inactive: 0.02.

Consider RALGPS2 (UniProt Q86X27), for which the log2 fold change was inactive: 0.103 in experiment [1]; inactive: -0.369 in the experiment with vorinostat; inactive: 0.037 with silmitasertib; inactive: 0.069 in experiment [2]; inactive: 0.041 with entospletinib.

In the case of RAD18 (UniProt Q9NS91), the log2 fold change is inactive: 0.004 in experiment [1]; inactive: -0.107 in the experiment with vorinostat; inactive: 0.019 with silmitasertib; inactive: -0.033 in experiment [2]; inactive: -0.017 in the experiment with entospletinib.

Turning to R3HDM4 (UniProt Q96D70), the log2 fold change in experiment [1] is inactive: -0.046; with vorinostat, inactive: 0.003; with silmitasertib, inactive: 0.017; in experiment [2], inactive: -0.021; with entospletinib, inactive: -0.062.

On to QSER1, A0A3B3IRW6, for which the log2 fold change in experiment [1] is inactive: -0.013; with vorinostat it was active: -0.236; in the experiment with silmitasertib it was inactive: 0.038; in experiment [2], inactive: 0.033; with entospletinib, inactive: 0.002.

As for RAB21 (UniProt Q9UL25), the log2 fold change was inactive: 0.017 in experiment [1]; inactive: -0.235 in the experiment with vorinostat; inactive: -0.021 in the experiment with silmitasertib; inactive: 0.029 in experiment [2]; inactive: 0.02 with entospletinib.

Consider R3HCC1L, A0A384DVK4, for which the log2 fold change in experiment [1] is inactive: 0.109; with vorinostat, inactive: -0.043; in the experiment with silmitasertib, inactive: -0.068; in experiment [2], inactive: 0.001; in the experiment with entospletinib it was inactive: 0.013.

As to PXK (UniProt Q7Z7A4), the log2 fold change is inactive: 0.043 in experiment [1]; inactive: -0.092 with vorinostat; inactive: -0.085 in the experiment with silmitasertib; inactive: -0.018 in experiment [2]; inactive: 0.021 with entospletinib.

As for RAB35 (UniProt Q15286), the log2 fold change was inactive: 0.018 in experiment [1]; inactive: 0.035 in the experiment with vorinostat; inactive: 0.005 with silmitasertib; inactive: -0.045 in experiment [2]; inactive: -0.077 in the experiment with entospletinib.
